Chains of the proteins cited; added tags and fusions are not shown.
UniProt Q8NER1, whole entry, looked up: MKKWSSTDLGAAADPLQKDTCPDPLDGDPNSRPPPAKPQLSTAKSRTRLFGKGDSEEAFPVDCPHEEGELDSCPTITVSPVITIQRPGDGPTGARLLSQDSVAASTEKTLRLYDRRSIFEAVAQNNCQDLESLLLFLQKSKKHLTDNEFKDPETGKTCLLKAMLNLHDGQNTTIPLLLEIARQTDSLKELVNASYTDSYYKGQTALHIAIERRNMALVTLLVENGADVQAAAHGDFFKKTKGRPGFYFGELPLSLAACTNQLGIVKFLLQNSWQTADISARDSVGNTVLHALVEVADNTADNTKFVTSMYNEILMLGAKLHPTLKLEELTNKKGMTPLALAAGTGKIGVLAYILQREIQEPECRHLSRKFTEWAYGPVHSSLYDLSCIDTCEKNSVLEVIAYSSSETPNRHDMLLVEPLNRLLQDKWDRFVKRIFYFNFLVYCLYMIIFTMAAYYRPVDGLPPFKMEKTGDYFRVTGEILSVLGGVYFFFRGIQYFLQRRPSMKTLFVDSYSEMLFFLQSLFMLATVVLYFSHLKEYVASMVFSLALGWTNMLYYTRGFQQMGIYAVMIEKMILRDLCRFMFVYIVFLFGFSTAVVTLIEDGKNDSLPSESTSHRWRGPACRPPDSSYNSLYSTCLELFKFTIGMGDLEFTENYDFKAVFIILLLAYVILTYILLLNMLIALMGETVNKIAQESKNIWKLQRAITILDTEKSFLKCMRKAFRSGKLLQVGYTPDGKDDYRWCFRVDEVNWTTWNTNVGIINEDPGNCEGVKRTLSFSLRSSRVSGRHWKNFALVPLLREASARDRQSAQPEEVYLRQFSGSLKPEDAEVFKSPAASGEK

Hit rate of the full screen: of about 320,000 compounds, about 620 (0.19%) were called active. The inconclusive results got no clear call from the source; some entries with a clear call stand among them for comparison. Cut-off read from the data, not from the text of the source: active = activation above about 80%; inconclusive = between about 30% and that limit; inactive = weaker than that.
What follows are compounds tested against Transient receptor potential cation channel subfamily V member 1 (Homo sapiens) (UniProt Q8NER1) (assay: HTS Assay for Compounds that Act as Agonists of the Vanilloid Receptor 1). Settings: TRPV1-expressing cells, Fluo-8 calcium influx, agonist mode; at 8.33 µM, active compounds read high.
Outline: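 TRPV1-expressing cells were cultured overnight at 35.5C and loaded with Fluo-8 calcium dye for 40 to 90 min at room temperature. After a 10 s baseline, compound was added and calcium influx was read kinetically for 3 min (ex 480/em 520 nm).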
For O=C(CCCc1ccccc1)N1CCc2ccccc21, the activation was inconclusive: 33.9%.
For O=C(NCc1cccs1)C1CCC(CNS(=O)(=O)c2ccccc2)CC1 (centres undefined), the activation was inactive: 2.76%.
For COc1ccc(C[C@H]2CN3C(=NC[C@@H]3C(C)C)N2CCNC(=O)c2ccc(C)c(Br)c2)cc1, the activation was inactive: 1.12%.
With COc1ccc(C(=O)Nc2ccc(C3=NNC(=O)CC3C)cc2NC(=O)c2ccc(OC)cc2)cc1 (centres undefined) the activation was active: 83.5%.
With Cc1cc(C)cc(NC(=O)CN2CCc3cc4c(cc3C2C)OCCCO4)c1 (centres undefined) the activation was inconclusive: 37.3%.
With Cc1cc(C)c2c(=O)n(CC(=O)NCCCN3CCOCC3)sc2n1 the activation was inactive: 10.2%.
CCn1c(=O)c(C(=O)NCc2ccc(Cl)cc2)c(O)c2ccccc21 was tested, and the activation was inactive: 3.11%.
With O=C(Nc1nc2c(ccc3ccccc32)s1)c1ccco1 the activation was inconclusive: 45.7%.
For COc1ccc(COC(=O)C2CC(=O)N(Cc3ccccc3)C2)cc1 (centres undefined), the activation was inconclusive: 38.1%.
Cc1cccc(C)c1N(CC(O)Cn1c2ccccc2c2ccccc21)S(C)(=O)=O (centres undefined) was tested, and the activation was inactive: 7.65%.
Cc1ccc(S(=O)(=O)N2CCC(=O)N(C(COCc3cccc(C)c3)Cc3ccccc3)CC2)cc1 (centres undefined) was tested, and the activation was inconclusive: 45.7%.
For COC(=O)c1ccc(NC(=O)c2ccc3c(c2)NC(=O)C2CCCN32)cc1 (centres undefined), the activation was inactive: -1.66%.
With C=CCn1c(SCC(=O)/C(C#N)=C(\C)N)nc2sc(C)c(C)c2c1=O the activation was inconclusive: 33.6%.
For CCOC(=O)c1cn(-c2c(Cl)cccc2Cl)c2cc(Cl)c([N+](=O)[O-])cc2c1=O, the activation was inconclusive: 31.5%.
With S=C(Nc1ccc(Nc2ccccc2)cc1)NN1CCOCC1 the activation was inactive: 1.89%.
With CN(C)c1cc(Cl)c2nonc2c1N the activation was inactive: -3.14%.
With COc1cccc(C2N(c3ccc(Cl)c(Cl)c3)C(=O)C3CCCN32)c1OC (centres undefined) the activation was inconclusive: 31.4%.
With Cc1ccc(NC(=O)NCC2CCN(Cc3cccc(Cl)c3)CC2)cc1Cl the activation was inactive: 17.7%.
CC(C)CCNC(=O)c1ccc2c(c1)ncn2C1CCCCC1 was tested, and the activation was inconclusive: 33.9%.
For CCC(C)Nc1nc(C)nc2c1oc1ccccc12 (centres undefined), the activation was inconclusive: 38.3%.
In the case of CCCc1cc(C(=O)Nc2sc(C)c(CC)c2C#N)no1, the activation was inconclusive: 48.3%.
In the case of COc1ccccc1NC(=O)CN(Cc1ccco1)C(=O)c1ccc(-n2nc(C)cc2C)cc1, the activation was inactive: -1.68%.
In the case of CN(CC(=O)Nc1cccnc1)S(=O)(=O)c1cc(Cl)ccc1Cl, the activation was inconclusive: 54.5%.
In the case of Cc1ccc(C(=O)N/C(=C/c2cccs2)C(=O)N2CCCCCC2)cc1, the activation was inconclusive: 43.1%.
For O=C(CCN1CCCCO1)N1CCCC(Nc2ccc(F)cc2)C1 (centres undefined), the activation was inconclusive: 63.6%.
In the case of N#CC(C#N)=C1C=CC=CN1/C(=C\c1ccco1)C(=O)c1ccc(Br)cc1, the activation was inconclusive: 32.9%.
O=C(c1ccco1)N1CCN(c2ccnc3cc(Cl)ccc23)CC1 was tested, and the activation was inconclusive: 39.2%.
In the case of O=C(O)c1cc(O)c2c(c1)C(=O)c1cccc(O)c1C2=O, the activation was inactive: 1.79%.
For Cc1nn(C2CCS(=O)(=O)C2)c(Cl)c1/C=C/C(=O)OCC(=O)c1c[nH]c2ccccc12 (centres undefined), the activation was inactive: -3.76%.
With CCN(CC(=O)NCc1ccc(Cl)cc1)C(=O)COc1cccc(Cl)c1 the activation was inconclusive: 35.7%.
With O=C(Nc1ccncc1)C1COc2ccccc2O1 (centres undefined) the activation was inconclusive: 46.8%.
For CC(C)c1cccc(C2=CC(=O)C[C@H](c3ccc(F)cc3)C2)c1, the activation was inconclusive: 60.1%.
COc1ccc(-c2nc3ccc(C)cn3c2NCc2ccccc2)cc1SC1CCCCC1 was tested, and the activation was inconclusive: 63%.
For Cc1onc(-c2ccccc2)c1C(=O)c1c[nH]c(C(=O)NCCCN2CCOCC2)c1, the activation was inactive: -1.56%.
In the case of Cc1cccc(NC(=O)NCc2cccnc2)c1C, the activation was inactive: -0.305%.
Clc1ccc(-n2ncc3c(NCC4CCCO4)ncnc32)cc1 (centres undefined) was tested, and the activation was inactive: 26.1%.
CCCCCn1c(=O)c(C(=O)c2ccccc2)nc2ccccc21 was tested, and the activation was inconclusive: 39.5%.
With CCCCC(O)(CCCC)C(=O)NN(C(=O)OC)c1ccc(C)cc1 the activation was inconclusive: 49.4%.
For Cc1ccc(NC(=O)c2nc(C)n(-c3ccc([N+](=O)[O-])cc3)n2)cc1, the activation was inconclusive: 44.5%.
With O=C(C1=C[C@H](c2ccccc2)C[C@H](OCc2ccc(CO)cc2)O1)N1CCN(Cc2ccccc2)CC1 the activation was inconclusive: 44.4%.
CCOc1ccc(S(=O)(=O)Nc2nc3ccccc3nc2-n2ccc(=NC(=O)c3ccccc3C)cc2)cc1 was tested, and the activation was inactive: 5.91%.
For Nc1ccccc1C(=O)NNC1=C(C(=O)C(F)(F)F)CCC1, the activation was inactive: 8.68%.
O=C(NCCNc1nccc(C(F)(F)F)n1)c1cccc(C(F)(F)F)c1 was tested, and the activation was inconclusive: 30.2%.
With CC(C)C[C@H](NC(=O)c1[nH]cnc1C(=O)N[C@@H](C)C(=O)OC(C)(C)C)C(=O)OC(C)(C)C the activation was inconclusive: 74.4%.
NS(=O)(=O)c1ccc(NC(=S)NC2CCCCCC2)cc1 was tested, and the activation was inconclusive: 42.1%.
For O=C(NCCSc1ccc(Cl)cc1)c1ccc(CN2CCOCC2)cc1, the activation was inconclusive: 31.5%.
CCc1nc(N2CCN(C(C)=O)CC2)c2c3c(sc2n1)CCCC3 was tested, and the activation was inconclusive: 53.7%.
For N#Cc1ccc(/C=C\c2nccc3c2[nH]c2ccccc23)cc1, the activation was active: 90.1%.
In the case of CCCCC(=O)N(c1ccc(C(=O)O)cc1)c1nc(-c2ccc(Cl)cc2)c(CC)s1, the activation was inactive: 2.15%.
In the case of CC(C)CCNC1c2ccccc2C(=O)N1Cc1ccccc1 (centres undefined), the activation was inconclusive: 30%.
With COc1cccc(COc2cc3ccccc3nc2C)c1 the activation was inconclusive: 62.2%.
For CC1CCCN(CC(O)COc2ccc(S(=O)(=O)N3CCCC3)cc2[N+](=O)[O-])C1 (centres undefined), the activation was inactive: 0.494%.
NC(=S)N/N=C1\CCOc2ccc(F)cc21 was tested, and the activation was inactive: -0.797%.
With O=C(NC1CCC(O)CC1)c1ccccc1OCc1ccc(F)cc1 (centres undefined) the activation was inconclusive: 33.2%.
In the case of N#C/C(=C\c1ccc(N2CCCCC2)o1)C(=O)Nc1cccc(Br)c1, the activation was inconclusive: 70.7%.
For COc1ccc(NC(=O)c2ccco2)cc1NC(=O)c1cccc(OC(C)C)c1, the activation was inconclusive: 49.9%.
With Cc1ccc2nsnc2c1NC(=O)c1ccc([N+](=O)[O-])cc1 the activation was inactive: -3.15%.
For CCOC(=O)C(=O)Nc1ccc(Oc2ccccc2)cc1, the activation was inconclusive: 64.6%.
CCn1cnc2scc(-c3ccc(C)c(C)c3)c2c1=O was tested, and the activation was inconclusive: 30.7%.
Cc1cc(C)c(S(=O)(=O)/N=C2\C=C(Nc3ccc(C(=O)O)cc3)C(=O)c3ccccc32)c(C)c1 was tested, and the activation was inconclusive: 60.7%.
With COc1ccc(CNC(=O)Cc2ccc(-c3ccccc3)cc2)cc1OC the activation was inconclusive: 47.2%.
With O=c1oc2c(CN3CCCCC3)c(O)ccc2cc1-c1nc2ccccc2[nH]1 the activation was active: 84.6%.
For CCOc1cc(/C=N\Nc2ncc(F)c(N3CCOCC3)n2)ccc1Oc1nc(Cl)ncc1F, the activation was inconclusive: 54.8%.
With CCCCNC(=O)c1cc2c(=O)n(CC)c3ccccc3c2s1 the activation was inconclusive: 31.8%.
With Cc1cc(NC(=O)c2ccccc2[N+](=O)[O-])ccc1Br the activation was inconclusive: 43.4%.
In the case of Cc1cccc(NC(=S)NC(=O)c2cccs2)n1, the activation was inactive: -4.62%.
In the case of CCNc1nc(CSc2ccccc2)nc2sc(C)c(C)c12, the activation was inconclusive: 63.5%.
For COc1ccc(CNC(=O)COC(=O)c2ccc3ncsc3c2)cc1OC, the activation was inconclusive: 75.4%.
With CCN(CC)c1ccc(S(=O)(=O)N2CCOCC2)cc1NC(=O)C1CC1 the activation was inconclusive: 40.1%.
With Cc1ccc(N/N=C(/Sc2nnnn2-c2ccccc2)C(=O)c2ccccc2)cc1 the activation was inconclusive: 36.7%.
For S=c1[nH]nc(COc2ccccc2)n1/N=C/c1cccc(Br)c1, the activation was inactive: -1.69%.
With NC1=NN=C(c2ccc3c(c2)OCCO3)CS1 the activation was inactive: 6.27%.
In the case of Cc1ccc(NC(=O)CN(C)Cc2nc3ccccc3c(=O)[nH]2)c(Br)c1, the activation was inactive: 8.56%.
For CCOC(=O)c1cc2c(n(-c3ccccc3)c1=O)CC(C)(C)CC2=O, the activation was inactive: 0.586%.
For NC1=NC(=O)/C(=C/c2cn(CCC(=O)O)nc2-c2ccc(F)cc2)S1, the activation was inactive: -2.24%.
In the case of COC(=O)c1ccc(C)c(NC(=O)c2ccc(Cl)c([N+](=O)[O-])c2)c1, the activation was inconclusive: 36.4%.
For COc1ccc(C2=CC(=O)CC(c3ccccc3)C2)cc1 (centres undefined), the activation was inconclusive: 41.5%.
COc1cccc(N2CCN(CC(=O)Nc3ccc(S(=O)(=O)N4CCCCCC4)cc3)CC2)c1 was tested, and the activation was inactive: 1.64%.
With O=C(CN1CCC(C(=O)c2ccc3c(c2)OCCO3)CC1)NCc1ccc(F)cc1 the activation was inconclusive: 35.4%.
With Cc1cccc(NC(=O)COc2ccccc2C(=O)NC(C)c2ccccc2)c1 (centres undefined) the activation was inactive: -2.54%.
COc1ccc(-c2nnc(-c3ccc(C)cc3)o2)cc1 was tested, and the activation was inconclusive: 34.6%.
For Cc1ccc2c(c1)N(CC(=O)NC1CCC(C)CC1)C(=O)c1cccnc1O2 (centres undefined), the activation was inactive: 5.42%.
In the case of Cc1ccc(N2CC(C(=O)N3CCOCC3)CC2=O)cc1Cl (centres undefined), the activation was inconclusive: 43.3%.
For Cc1ccc(Nc2nc(CSc3nnc(-c4ccncc4)n3-c3ccccc3C)cs2)cc1, the activation was inconclusive: 34.5%.
For FC(F)(F)c1cccc(NC(=S)NC2CCCC2)c1, the activation was inconclusive: 46.8%.
With O=C(COc1ccccc1)NC(=S)Nc1cccc2cc(O)ccc12 the activation was inactive: 4.68%.
CCN1C(=NCCc2ccccn2)N[C@@H](c2cccc(C(F)(F)F)c2)C(C(=O)OC)=C1C was tested, and the activation was inactive: 4.52%.
With OCC1(CCOc2ccccc2)CCN(Cc2ccc3cccc(F)c3n2)CC1 the activation was inconclusive: 32.3%.
For CCCCCCOC(=O)CCc1c(C)nc(N)[nH]c1=O, the activation was inconclusive: 68.5%.

From PubChem BioAssay AID540275 (National Center for Advancing Translational Sciences (NCATS), 2011)
Note: 0% is about no effect.
